Read-outs that look alike come from different tables or passages of the source. No constants are given. Whether binding was seen depends on the method and setting. Some binding calls cover weakened binding; strength is not graded here.
T1: SopB, plasmid partitioning protein of F-plasmid (DNA-binding partner) (E. coli F-plasmid) (UniProt P62558)
T1 sequence: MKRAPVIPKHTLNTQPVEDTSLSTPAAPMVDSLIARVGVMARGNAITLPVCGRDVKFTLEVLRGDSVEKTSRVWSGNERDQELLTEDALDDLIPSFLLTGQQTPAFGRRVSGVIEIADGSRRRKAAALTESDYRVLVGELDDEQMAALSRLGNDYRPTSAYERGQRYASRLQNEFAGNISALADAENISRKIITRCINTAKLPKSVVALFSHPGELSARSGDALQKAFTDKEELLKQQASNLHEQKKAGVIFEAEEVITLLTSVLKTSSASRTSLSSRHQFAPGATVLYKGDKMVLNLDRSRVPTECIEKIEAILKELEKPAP

Protein sequences, listed by entry. Tags and fused reporters are not part of them.
UniProt P14565: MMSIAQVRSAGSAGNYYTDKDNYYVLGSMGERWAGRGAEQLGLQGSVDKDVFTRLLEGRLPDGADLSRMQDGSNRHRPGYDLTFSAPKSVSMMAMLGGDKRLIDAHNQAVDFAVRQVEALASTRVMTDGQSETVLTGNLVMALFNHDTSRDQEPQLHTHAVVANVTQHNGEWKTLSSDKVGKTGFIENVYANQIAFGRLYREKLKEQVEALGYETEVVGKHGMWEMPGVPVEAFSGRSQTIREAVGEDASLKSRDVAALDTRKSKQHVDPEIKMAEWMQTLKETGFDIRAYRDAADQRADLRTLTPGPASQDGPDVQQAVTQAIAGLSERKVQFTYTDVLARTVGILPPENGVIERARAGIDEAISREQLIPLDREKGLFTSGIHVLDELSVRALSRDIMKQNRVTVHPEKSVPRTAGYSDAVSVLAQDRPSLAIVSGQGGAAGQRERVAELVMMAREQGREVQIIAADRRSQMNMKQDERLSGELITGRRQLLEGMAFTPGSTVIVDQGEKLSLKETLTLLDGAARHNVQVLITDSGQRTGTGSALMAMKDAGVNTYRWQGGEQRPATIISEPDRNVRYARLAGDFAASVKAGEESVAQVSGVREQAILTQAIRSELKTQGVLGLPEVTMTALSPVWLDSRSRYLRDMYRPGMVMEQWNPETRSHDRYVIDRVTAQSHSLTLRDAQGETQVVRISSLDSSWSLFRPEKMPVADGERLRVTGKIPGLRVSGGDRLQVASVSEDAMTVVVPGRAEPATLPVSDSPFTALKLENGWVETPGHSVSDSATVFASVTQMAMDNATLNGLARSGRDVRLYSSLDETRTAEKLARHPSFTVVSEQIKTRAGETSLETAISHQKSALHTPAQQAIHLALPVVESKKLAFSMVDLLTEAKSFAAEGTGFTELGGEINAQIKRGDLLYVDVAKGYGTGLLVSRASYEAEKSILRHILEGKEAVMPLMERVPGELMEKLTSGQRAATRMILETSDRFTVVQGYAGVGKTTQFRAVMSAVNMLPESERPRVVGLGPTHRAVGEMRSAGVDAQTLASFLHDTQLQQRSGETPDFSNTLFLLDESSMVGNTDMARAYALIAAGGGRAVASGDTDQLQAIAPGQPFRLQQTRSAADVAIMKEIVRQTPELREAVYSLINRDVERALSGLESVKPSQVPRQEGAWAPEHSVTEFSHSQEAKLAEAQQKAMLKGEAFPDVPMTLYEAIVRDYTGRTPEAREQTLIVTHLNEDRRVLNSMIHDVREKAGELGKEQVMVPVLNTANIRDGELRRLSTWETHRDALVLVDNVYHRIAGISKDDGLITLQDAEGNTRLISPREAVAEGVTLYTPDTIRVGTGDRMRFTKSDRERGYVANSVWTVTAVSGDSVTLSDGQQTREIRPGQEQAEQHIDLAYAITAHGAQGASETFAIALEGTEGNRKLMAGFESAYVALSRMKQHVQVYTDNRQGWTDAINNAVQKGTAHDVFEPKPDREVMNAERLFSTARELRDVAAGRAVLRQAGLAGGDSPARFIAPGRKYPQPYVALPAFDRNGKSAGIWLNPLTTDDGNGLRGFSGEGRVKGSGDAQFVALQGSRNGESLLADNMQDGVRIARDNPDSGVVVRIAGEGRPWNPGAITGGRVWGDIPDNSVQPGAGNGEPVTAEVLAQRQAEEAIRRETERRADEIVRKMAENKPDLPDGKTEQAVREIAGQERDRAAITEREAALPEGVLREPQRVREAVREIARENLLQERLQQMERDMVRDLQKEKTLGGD


Columns and labels:
Experiment in all cases: two-hybrid; bacterial two-hybrid (BACTH): T18 and T25 fragments of B. pertussis adenylate cyclase fused to the N- or C-terminus; plasmids co-transformed into E. coli BTH101; LB agar with 0.5 mM IPTG and 40 ug/ml X-gal, 40-48 h at 30 C, blue colony colour; beta-galactosidase assay (Miller) of overnight cultures at 30 C for some pairs
[1] = biological target: TraI from F-plasmid (relaxase) (E. coli F-plasmid) (UniProt P14565)
[2] = biological target: SopA, plasmid partitioning protein of F-plasmid (Walker-type ATPase) (E. coli F-plasmid) (UniProt P62556)
[3] = biological target: T1, SopB, plasmid partitioning protein of F-plasmid (DNA-binding partner) (E. coli F-plasmid)
[4] = biological target: TraI from F-plasmid (relaxase) (E. coli F-plasmid) (UniProt P14565); remark: listed apart in the source

binding [2] | binding [3] | binding [4] | Molecule | binding [1]
– | – | – | TraI from F-plasmid (relaxase) (from UniProt P14565 1-1756) | binds weakly
binds | binds | binds weakly | SopA, plasmid partitioning protein of F-plasmid (Walker-type ATPase) (protein, UniProt P62556 1-388) MKLMETLNQCINAGHEMTKAIAIAQFNDDSPEARKITRRWRIGEAADLVGVSSQAIRDAEKAGRLPHPDMEIRGRVEQRVGYTIEQINHMRDVFGTRLRRAEDVFPPVIGVAAHKGGVYKTSVSVHLAQDLALKGLRVLLVEGNDPQGTASMYHGWVPDLHIHAEDTLLPFYLGEKDDVTYAIKPTCWPGLDIIPSCLALHRIETELMGKFDEGKLPTDPHLMLRLAIETVAHDYDVIVIDSAPNLGIGTINVVCAADVLIVPTPAELFDYTSALQFFDMLRDLLKNVDLKGFEPDVRILLTKYSNSNGSQSPWMEEQIRDAWGSMVLKNVVRETDEVGKGQIRMRTVFEQAIDQRSSTGAWRNALSIWEPVCNEIFDRLIKPRWEIR | –
– | binds | – | SopB, plasmid partitioning protein of F-plasmid (DNA-binding partner) (protein, UniProt P62558 1-323) MKRAPVIPKHTLNTQPVEDTSLSTPAAPMVDSLIARVGVMARGNAITLPVCGRDVKFTLEVLRGDSVEKTSRVWSGNERDQELLTEDALDDLIPSFLLTGQQTPAFGRRVSGVIEIADGSRRRKAAALTESDYRVLVGELDDEQMAALSRLGNDYRPTSAYERGQRYASRLQNEFAGNISALADAENISRKIITRCINTAKLPKSVVALFSHPGELSARSGDALQKAFTDKEELLKQQASNLHEQKKAGVIFEAEEVITLLTSVLKTSSASRTSLSSRHQFAPGATVLYKGDKMVLNLDRSRVPTECIEKIEAILKELEKPAP | –

Source: article PMC8716806
